According to patent publication EP0624163B1 (Smithkline Beecham Farmaceutici S.p.A., priority 1992, dated 1998):
Non-standard residues stand in square brackets, D forms with d. *: point of attachment. His(Trt) = N[C@@H](Cc1cn(C(c2ccccc2)(c2ccccc2)c2ccccc2)cn1)C(=O)O; Fmoc = O=C(OCC1c2ccccc2-c2ccccc21)*; Mtr = COc1cc(C)c(S(=O)(=O)*)c(C)c1C; Cbz = O=C(OCc1ccccc1)*; Boc = CC(C)(C)OC(=O)*; OBn = c1ccc(CO*)cc1; OtBu = CC(C)(C)O*; tBu = CC(C)(C)*

Assay: general procedure: solution-phase peptide synthesis; DCC/HOBt/DMAP; pentafluorophenyl and N-hydroxysuccinimide esters; BOP for cyclis

Work on “H-K(Boc)LS(tBu)QE(OtBu)L[His(Trt)]K(Boc)LQT(tBu)Y(tBu)PR(Mtr)T(tBu)AVGAGT(tBu)P-NH2” yielded a step yield (late stage modification step) of 100%.

H-VGAG-OtBu showed a step yield (late stage modification step) of 86%.

Cbz-AVGAGT(tBu)P-NH2 gave a step yield (coupling step) of 30%.

With Fmoc-S(tBu)NLS(tBu)T(tBu)-OBn the step yield (coupling step) was 99%.

For H-NLS(tBu)T(tBu)-OBn, the step yield (late stage modification step) was 97%.

Cbz-VGAG-OtBu showed a step yield (coupling step) of 65.3%.

H-AVGAGT(tBu)P-NH2 showed a step yield (late stage modification step) of 94%.

For “Fmoc-Lys(Boc)-Leu-Ser(t-Bu)-Gln-Glu(O-t-Bu)-Leu-His(Trt)--Lys(Boc)-Leu-Gln-Thr(t-Bu)-Tyr(t-Bu)-Pro-Arg(Mtr)-Thr(t --Bu)-Asp(O-t-Bu)-Val-Gly-Ala-Gly-Thr(t-Bu)-Pro-NH2”, the step yield (coupling step) was 94%.

Work on Cbz-AVGAG-OH yielded a step yield (late stage modification step) of 100%.

Work on Fmoc-NLS(tBu)T(tBu)-OBn yielded a step yield (coupling step) of 80%.

Work on “Fmoc-Lys(Boc)-Leu-Ser(t-Bu)-Gln-Glu(O-t-Bu)-Leu-His(Trt)-Lys(Boc)-Leu-Gln-Thr(t-Bu)-Tyr(t-Bu)-Pro-A rg(Mtr)-Thr(t-Bu)-Ala-Val-Gly-Ala-Gly-Thr(t-Bu)-Pro-NH2” yielded a step yield (coupling step) of 98%.

Work on Fmoc-S(tBu)NLS(tBu)T(tBu)-OH yielded a step yield (late stage modification step) of 53.3%.

H-R(Mtr)T(tBu)D(OtBu)VGAGT(tBu)P-NH2 showed a step yield (late stage modification step) of 99%.

“H-Arg-(Mtr)-Thr(t-Bu)-Ala-Val-Gly-Ala-Gly-Th r(t-Bu)-Pro-NH2” gave a step yield (late stage modification step) of 100%.

In the case of “Fmoc-Arg(Mtr)-Thr(t-Bu)-Ala-Val-Gly-Ala-Giy-Thr(t-Bu)-Pro-NH2”, the step yield (coupling step) is reported as 68.8%.

Work on Cbz-AVGAG-OtBu yielded a step yield (coupling step) of 57.9%.
